Results reported in US20080299072A1.
Results are given in words; binding and its absence hold for the method and conditions named. Some results given as binding are weak or reduced against the parent protein; the word gives no strength.

Chains of the proteins cited; added tags and fusions are not shown. Lines headed by an entry give the natural chain unless they say otherwise; changes in a name come on top.
UniProt P13501: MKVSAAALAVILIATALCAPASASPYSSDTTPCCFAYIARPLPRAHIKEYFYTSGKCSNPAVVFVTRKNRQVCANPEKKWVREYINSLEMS

Target: T1, CCR1 (UniProt P32246)
T1 sequence (looked up): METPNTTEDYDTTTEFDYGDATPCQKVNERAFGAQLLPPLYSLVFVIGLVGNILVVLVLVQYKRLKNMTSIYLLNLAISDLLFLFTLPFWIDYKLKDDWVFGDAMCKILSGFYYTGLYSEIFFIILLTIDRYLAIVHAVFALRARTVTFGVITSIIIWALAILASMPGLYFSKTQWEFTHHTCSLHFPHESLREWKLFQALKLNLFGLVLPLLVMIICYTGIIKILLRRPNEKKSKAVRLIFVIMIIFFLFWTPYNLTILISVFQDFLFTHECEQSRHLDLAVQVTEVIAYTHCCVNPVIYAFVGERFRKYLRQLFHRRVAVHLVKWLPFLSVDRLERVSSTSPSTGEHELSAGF
Experiment: competition SPA on CCR1 CHO membranes

S1C-5 kDaPEG-RANTES (from UniProt P13501 25-91) (ligand)
binding: binds

S4C-5 kDaPEG-RANTES (from UniProt P13501 24-91) (ligand)
binding: binds

S5C-5 kDaPEG-RANTES (from UniProt P13501 24-91) (ligand)
binding: binds
